{"source": "patent US20050175608A1", "about": "(Kyowa Kirin, published 2005)", "binders": {"B1": {"name": "anti-FGF-8 neutralizing mouse antibody KM1334 (antibody, mouse IgG1, V domains shown)", "VH": "QVQLQQSGAEVARPGASVKLSCKASGYTFTDYYLNWVKQRSGQGLEWIGEIDPGSDSIYYNENLEGRATLTADKSSSTAYMQLNSLTSEDSAVYFCARYGYSRYDVRFVYWGQGTLVTVST", "VL": "DVLMTQTPLSLPVSLGDQASISCRSSQSLVHSNGRTYLEWYLQKPGQSPKVLIYKVSNRISGVPDRFSGSGSGTDFTLKISRVEAEDLGVYFCFQGSHVPYTFGGGTKLEIK"}}, "molecular_target": "T1, human FGF-8 (human) (UniProt P55075)", "T1 sequence (looked up)": "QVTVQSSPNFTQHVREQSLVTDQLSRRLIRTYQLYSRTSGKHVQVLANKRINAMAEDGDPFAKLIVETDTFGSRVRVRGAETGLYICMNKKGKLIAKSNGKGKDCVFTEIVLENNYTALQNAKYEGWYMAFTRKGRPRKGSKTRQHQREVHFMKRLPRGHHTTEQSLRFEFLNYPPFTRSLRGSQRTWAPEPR", "assay": "tissue immunostaining of paraffin sections of human rheumatoid arthritis synovial membrane", "note": "Results are given in words; binding and its absence hold for the method and conditions named. Some entries that bind do so weakly or less than the wild type."}
{"binder": "B1", "values": [{"measurement": "binding", "value": "binds"}]}
